Test results from patent US20260166140A1, “Combinations Involving Epidermal Growth Factor Receptor Tyrosine Kinase Inhibitors For the Treatment of Cancer” (AstraZeneca AB, priority 2022, published 2026).
These are yes or no findings as the source states them, for the method shown. Some entries that bind do so weakly or less than the wild type.

By UniProt entry, the sequences of proteins in these tests, tags left out. Where a name states a change or a piece, a line headed by the entry shows the natural chain unless it says otherwise.
UniProt P08581: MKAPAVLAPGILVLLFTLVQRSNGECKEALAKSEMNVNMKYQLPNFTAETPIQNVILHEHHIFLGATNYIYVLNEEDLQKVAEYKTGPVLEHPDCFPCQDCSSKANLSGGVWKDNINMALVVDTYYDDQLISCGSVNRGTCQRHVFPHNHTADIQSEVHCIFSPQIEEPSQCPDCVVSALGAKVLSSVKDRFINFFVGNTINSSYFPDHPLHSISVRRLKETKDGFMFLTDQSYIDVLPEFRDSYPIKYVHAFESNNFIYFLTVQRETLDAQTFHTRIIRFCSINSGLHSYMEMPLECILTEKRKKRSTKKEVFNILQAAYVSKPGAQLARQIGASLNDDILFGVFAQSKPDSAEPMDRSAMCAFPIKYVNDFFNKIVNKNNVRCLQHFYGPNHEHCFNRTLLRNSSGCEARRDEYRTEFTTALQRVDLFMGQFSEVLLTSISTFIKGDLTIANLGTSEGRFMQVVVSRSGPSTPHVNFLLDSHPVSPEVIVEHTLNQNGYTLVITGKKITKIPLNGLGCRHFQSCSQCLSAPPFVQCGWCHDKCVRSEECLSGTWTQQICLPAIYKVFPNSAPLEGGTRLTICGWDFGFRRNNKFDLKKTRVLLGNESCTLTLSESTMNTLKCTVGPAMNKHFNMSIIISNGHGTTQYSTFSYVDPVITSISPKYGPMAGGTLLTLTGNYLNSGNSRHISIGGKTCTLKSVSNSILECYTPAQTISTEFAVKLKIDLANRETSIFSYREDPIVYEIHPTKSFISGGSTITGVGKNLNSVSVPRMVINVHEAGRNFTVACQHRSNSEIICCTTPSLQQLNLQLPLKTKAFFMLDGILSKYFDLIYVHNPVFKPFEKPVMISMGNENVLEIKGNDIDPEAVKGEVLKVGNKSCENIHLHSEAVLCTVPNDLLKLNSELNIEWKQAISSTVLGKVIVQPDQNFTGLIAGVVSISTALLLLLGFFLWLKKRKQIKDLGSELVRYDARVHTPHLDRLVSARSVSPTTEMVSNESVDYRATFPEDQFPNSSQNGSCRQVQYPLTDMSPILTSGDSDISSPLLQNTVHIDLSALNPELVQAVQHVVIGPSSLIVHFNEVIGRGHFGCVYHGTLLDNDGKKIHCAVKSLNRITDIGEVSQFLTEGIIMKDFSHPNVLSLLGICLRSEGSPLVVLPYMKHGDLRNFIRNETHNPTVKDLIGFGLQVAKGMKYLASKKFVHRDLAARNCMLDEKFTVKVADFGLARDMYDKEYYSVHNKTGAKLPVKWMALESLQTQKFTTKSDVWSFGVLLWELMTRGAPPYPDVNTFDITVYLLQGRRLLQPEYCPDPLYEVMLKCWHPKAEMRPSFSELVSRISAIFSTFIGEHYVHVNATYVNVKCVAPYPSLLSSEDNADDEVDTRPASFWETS

Columns and labels:
[1] = target: Cynomolgus monkey cMET (recombinant, soluble monomeric) (cynomolgus monkey); test: ELISA, FIG. 3A legend
[2] = target: Human cMET (recombinant, soluble monomeric) (human) (UniProt P08581); test: ELISA, FIG. 3A legend
[3] = target: Human cMET (recombinant, soluble monomeric) (human) (UniProt P08581); test: BLI, Octet384, His-tagged cMET on Ni-NTA sensors, antibody 66 nM
[4] = target: Cynomolgus monkey cMET (recombinant, soluble monomeric) (cynomolgus monkey); test: ELISA, antigen coated at 1 µg/mL, antibody 10 to 0.002 µg/mL, anti-human Fab HRP
[5] = target: Human cMET (recombinant, soluble monomeric) (human) (UniProt P08581); test: as above
[6] = target: Human cMET (recombinant, soluble monomeric) (human) (UniProt P08581); test: ELISA: antigen coated at 1 ug/mL, antibody dilution series, goat anti-human Fab-HRP, A450; panel Human cMET
[7] = target: Cynomolgus monkey cMET (recombinant, soluble monomeric) (cynomolgus monkey); test: ELISA: antigen coated at 1 ug/mL, antibody dilution series, goat anti-human Fab-HRP, A450; panel Cynomolgus cMET
[8] = target: Human cMET (recombinant, soluble monomeric) (human) (UniProt P08581); test: Octet biolayer interferometry, antigen capture format: His-tagged human cMET on NI-NTA sensors, then antibody (66 nM), then human EGFR (500 nM)

Measured: binding

B1: B09-57 IgG (antibody, V domains shown)
VH: QVQLVQSGAEVKKPGASVKVSCKASGYTFTDYYIHWVRQATGQGLEWMGWMNPNSGNTGYAQKFQGRVTMTRDTSISTAYMELSSLRSEDTAVYYCARGQGYTHSWGQGTMVTVSS
VL: DIQMTQSPSTLSASVGDRVTITCRASEGIYHWLAWYQQKPGKAPKLLIYKASSLASGVPSRFSGSGSGTEFTLTISSLQPDDFATYYCQQYSNYPPTFGGGTKLEIK
notes: also called B09-GL; cMET IgG B09
binds: all assays above
